# In PubChem BioAssay AID493014 (National Center for Advancing Translational Sciences (NCATS), 2011):
# Out of some 340,000 compounds screened, about 170 (0.05%) were called active. Inconclusive results, whose numbers are uncertain, are shown with a selection of clear calls. Calls come from the whole dose curve; as a rule, active = well fitted inhibition curve with a large enough effect in the signal ratio, with a control signal flat (not every such curve was filed as active); inconclusive = small, poorly fitted or top-dose-only effect, or effect the other way, or a change in a side signal; inactive = flat fitted curve, though single readings scatter; the % refers to the signal ratio. Potencies beside an inconclusive call are fits to weak or partial responses and may not hold up.
# Assay: qHTS Assay to Find Inhibitors of Chronic Active B-Cell Receptor Signaling;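 for activity change, negative = inhibition: plate controls were basal doxycycline-induced cells for no effect and cells given 10 µM MG132 for full effect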
# Conditions: ABC-DLBCL IkBa-CBG/CBR reporter, luminescence ratio (green luciferase fused to IkBa over red control in TMD8 lymphoma cells), 4 h; activity change, negative = inhibition: at 46.1 µM (top of the series)
# In short: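 Cell line TMD8 (human ABC DLBCL), stably expressing tet-inducible CBG68-IkBa fusion and CBR; IMDM/0.5% FBS; cpd up to 46 uM; dox induction, 4 h, 37C/5% CO2; dual luminescence; green/red ratio; MG132 control.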
# Potency is the fitted concentration of half-maximal effect.
SMILES,"activity change, negative = inhibition",Potency
Cc1c(C(=O)Nc2nnc(C(F)(F)F)s2)oc2ccccc12,inconclusive: -0.0793%,
COc1cc2c3c(c1)C(C)=CC(C)(C)N3C(=O)C2=O,,"inconclusive: 22.4 µM [falling, single point]"
COc1ccc(NC(=O)COC(=O)/C=C/c2ccc(OC)c(S(=O)(=O)N3CCOCC3)c2)cc1,,"inconclusive: 8.2 µM [falling, partial curve]"
CC(=O)Nc1ccc(S(=O)(=O)N2CCN=C2SCc2ccc([N+](=O)[O-])cc2)cc1,inactive,
Cc1ccccc1-c1cc(-c2ccccc2O)n[nH]1,,"inconclusive: 6.51 µM [falling, single point]"
Cc1cc(=O)oc(C)c1C(=O)NCCC1=CCCCC1,inconclusive: 1.14%,
Cc1ccc(-n2ncc3c(N4CCN(c5ccccc5)CC4)ncnc32)c(C)c1,inconclusive: 5.03%,
CSc1ccc(NC(=O)CSc2nc3[nH]c(=O)cc(O)c3s2)cc1,,"inconclusive: 18.4 µM [falling, partial curve]"
COc1cccc(C(=O)NOCc2ccccc2)c1OC,inconclusive: 3.23%,
CC(=O)Nc1ccc(OCC(O)Cn2c(CO)nc3ccccc32)cc1 (stereo not drawn),inactive,
O=C1NC[C@H](Cc2ccccc2)N(CC2CCCCC2)C1=O,inconclusive: 6.68%,
COC(=O)Cn1c(=NC(=O)c2cc(OC)cc(OC)c2)sc2cc(OC)ccc21,,"inconclusive: 5.8 µM [falling, partial curve]"
O=C(CN(C(=O)CSc1nc2ccccc2o1)c1ccccc1F)NC1CCCCC1,,"inconclusive: 6.51 µM [falling, partial curve, poor fit]"
COCC(C)NS(=O)(=O)c1ccc(C(=O)NCCCn2ccc3ccccc32)cc1 (stereo not drawn),inconclusive: -1.84%,
Cc1ccc(CSc2nnc(-c3ccco3)o2)cc1,inactive,
O=C(Nc1ccc(F)cc1)c1cc(S(=O)(=O)Nc2ccc(F)cc2)cs1,inactive,
Cc1nn(C(=O)c2cccnc2)c(C)c1C,inconclusive: 0.0495%,
COc1ccccc1C1CC(c2ccccc2)=NN1S(=O)(=O)c1ccccc1 (stereo not drawn),inactive,
Cn1c(=O)c2c(nc(NCCCO)n2Cc2cccc(Br)c2)n(C)c1=O,inconclusive: -4.93%,
CCCCNC(=S)Nc1ccc(Oc2ccccc2)cc1,inactive,
COc1cc(C(c2c(C)[nH][nH]c2=O)c2c(C)[nH][nH]c2=O)ccc1OC(=O)c1cccc([N+](=O)[O-])c1,inactive,

SMILES,"activity change, negative = inhibition",Potency
COC(=O)c1c(NC(=O)C(C)C)sc2c1CCN(Cc1ccccc1)C2,inactive,
C/C(=N\NC(=S)Nc1ccccc1C)C1Cc2ccccc2C(=O)O1 (stereo not drawn),,"inconclusive: 31.6 µM [falling, single point]"
COc1ccc(OC)c(-c2cc(C(=O)NCCN3CCOCC3)no2)c1,inconclusive: -7.56%,
CCOC(=O)c1c(NC(=O)CSc2nnnn2C)sc(C)c1-c1ccc(C)cc1,inconclusive: 7.08%,
COc1cccc(C(=O)NCCC2=CCCCC2)c1,,"inconclusive: 23.1 µM [falling, single point]"
Cc1ccc2[nH]c(=S)cc(C)c2c1,inactive,
CN(C)S(=O)(=O)c1ccc(C(=O)Nc2ccc3ncccc3c2)cc1,inconclusive: 10.3%,
CC(=O)C1=C(c2ccccc2)NC(=S)NC1c1cc(Cl)c(OC(C)C)c(Cl)c1 (stereo not drawn),inconclusive: 2.04%,
CCOC(=O)c1csc(NC(=O)c2cc(OC)c(OC)c(OC)c2)n1,inconclusive: 1.9%,
Cc1ccc2nsnc2c1NC(=O)c1cccc([N+](=O)[O-])c1,inconclusive: 5.46%,
CCOC(=O)N1CCN(C(=O)c2ccc3c(c2)sc2nc(-c4ccc(OC)cc4)cn23)CC1,inactive,
Cc1ncoc1C(=O)N1CCCC(N2CCN(c3ccccc3F)CC2)C1 (stereo not drawn),inactive,
COc1ccccc1CC(=O)NC1CCC(C)CC1 (stereo not drawn),inconclusive: 2.27%,
CCOc1ccc(C2C(C(=O)Nc3cc(C)on3)c3ccccc3C(=O)N2CCN2CCOCC2)cc1 (stereo not drawn),inconclusive: -2.74%,
CC(C)COc1ccc(C(=O)Nc2sc3c(c2C(=O)O)CC(C)(C)OC3)cc1,,"inconclusive: 4.47 µM [falling, full curve]"
O=C(COc1ccccc1)Nc1cccc(-c2nnc(-c3ccccc3)o2)c1,inactive,
CCCOc1ccc(C(=O)NCC(c2ccco2)N(C)C)cc1 (stereo not drawn),inconclusive: 9.52%,
CC1CCCC(NC(=O)COC(=O)c2cc(S(=O)(=O)N3CCCCC3)ccc2N2CCOCC2)C1C (stereo not drawn),inconclusive: 10%,
COc1cccc(OCCOc2c(OC)cccc2OC)c1,inconclusive: 0.52%,
CS(=O)(=O)c1ccc(Cl)c(NC(=O)CSc2nncn2-c2ccccc2)c1,inconclusive: -4.6%,
O=C(c1cc(-c2cccc(Br)c2)nc2ccccc12)N1CCCC1,inconclusive: -0.252%,

# In the list so far, 3 have a furan ring, fused or not.
SMILES,"activity change, negative = inhibition",Potency
Cc1c(C(=O)Nc2nnc(C(F)(F)F)s2)oc2ccccc12,inconclusive: -0.0793%,
Cc1ccc(CSc2nnc(-c3ccco3)o2)cc1,inactive,
CCCOc1ccc(C(=O)NCC(c2ccco2)N(C)C)cc1 (stereo not drawn),inconclusive: 9.52%,

# One compound at a time, as listed above:
# CCOC(=O)c1csc(NC(=O)c2cc(OC)c(OC)c(OC)c2)n1 is listed as activity change, negative = inhibition: inconclusive: 1.9%
# Cc1ccc2nsnc2c1NC(=O)c1cccc([N+](=O)[O-])c1 is listed as activity change, negative = inhibition: inconclusive: 5.46%

# More records

SMILES,"activity change, negative = inhibition",Potency
COc1ccccc1NC(=O)C1=C(C)Nc2nc(-c3ccc(N(C)C)cc3)nn2C1c1ccncc1 (stereo not drawn),inconclusive: -26.5%,
O=C(/C=C/c1ccccc1[N+](=O)[O-])NCCc1ccc(F)cc1,inconclusive: -12.3%,
CCOc1ncccc1C(=O)OC(C)C(=O)Nc1ccc(Cl)cn1 (stereo not drawn),inconclusive: 12.8%,
Cc1ccc(O)c(C2=Nc3ccccc3N=C(c3cccc([N+](=O)[O-])c3)C2)c1,,"inconclusive: 15.8 µM [rising, single point]"
CC(=O)c1ccc(-n2nnnc2SCC(=O)NC2CCCCC2)cc1,,"inconclusive: 10 µM [falling, partial curve, poor fit]"
COc1cc(C)ccc1S(=O)(=O)N1CCCCCC1,inconclusive: 7.92%,
C/C(CC(C)(C)C1CCCCC1)=N\NC(N)=S,,"inconclusive: 16.4 µM [falling, partial curve, poor fit]"
COC(=O)c1ccc(N2CN=C(c3ccc(C)cc3)NC2=S)cc1,,"inconclusive: 23.1 µM [falling, partial curve]"
Cn1c(SCc2ccccc2)nnc1-c1c[nH]c2ccccc12,inconclusive: 4.84%,
Cc1ccc(C(=O)c2cccc(N)c2)cc1C,,"inconclusive: 11.2 µM [falling, partial curve, poor fit]"
Cc1noc(C)c1S(=O)(=O)N1CCN(S(=O)(=O)c2ccccc2C#N)CC1,,"inconclusive: 7.08 µM [falling, partial curve, poor fit]"
CC1(C)Oc2ccc3ccc(=O)oc3c2C[C@H]1O[C@@H]1O[C@H](CO)[C@@H](O)[C@H](O)[C@H]1O,inconclusive: 4.12%,
C=CCNC(=S)NC(=O)c1oc2ccccc2c1C,inconclusive: -2.23%,
O=C(NC(=S)Nc1ccc2c(c1)OCO2)c1ccccc1,,"inconclusive: 22.4 µM [falling, partial curve]"
CCSc1cc(C)nc2c(-c3ccc(Cl)cc3)c(C)nn12,inactive,
CCN(CC)c1ccc(-c2c(C#N)c(N)nc(OC)c2C#N)cc1,inactive,
Cc1cc(C)c2c(CCl)cc(=O)oc2c1,,"inconclusive: 35.5 µM [falling, single point]"
O=C1OCC(CO)(CO)N=C1NNc1ccccc1[N+](=O)[O-],inconclusive: 7.74%,
CCn1c(SC)nnc1-c1c[nH]c2ccccc12,inconclusive: -1.32%,
Cc1ccc(-c2ccccc2NC(=O)CS(=O)CC(=O)Nc2ccc(C)c(Cl)c2)o1 (stereo not drawn),,"inconclusive: 10 µM [falling, partial curve, poor fit]"
CC(=O)c1ccc(NC(=O)C2CCN(S(=O)(=O)c3cccs3)CC2)cc1,inactive,

SMILES,"activity change, negative = inhibition",Potency
Cc1ccc(C(=O)NC(=S)Nc2cc(-c3nc4ccccc4s3)ccc2C)cc1,inactive,
CS(=O)(=O)N(CCc1ccccc1)CC(N)=O,inconclusive: -1.15%,
CN1CCN(c2nc3c(c(=O)[nH]c(=O)n3C)n2Cc2cccc(Br)c2)CC1,inconclusive: 5.13%,
Cc1cc(C(=O)Nc2cccc3ncccc23)no1,,"inconclusive: 14.1 µM [falling, single point]"
Cc1ccc(-n2cc(CNCCc3ncc(C)[nH]3)c(-c3ccc(F)cc3)n2)cc1,,"inconclusive: 22.4 µM [falling, single point]"
CCC(=O)C1=C(N2CCCC2)CC(C)(C)CC1=O,inconclusive: -11.4%,
O=C(C1=C[C@H](c2ccc3c(c2)OCO3)C[C@H](OCc2ccc(CO)cc2)O1)N1CCN(Cc2ccc3c(c2)OCO3)CC1,inconclusive: -8.98%,
COc1ccc(N(Cc2ccccc2)C(=O)CSc2nnc(Cn3nnc4ccccc43)o2)cc1,inconclusive: -13.2%,
CC(C)C(=O)N1CCN(c2ccc(NC(=O)c3ccco3)cc2Cl)CC1,inactive,
O=C(C1CCCCC1)N1CCN=C1SCc1cccnc1,inconclusive: -4.95%,
COC(=O)c1ccccc1NC(=O)c1cccc(COc2ccccc2Cl)c1,inconclusive: 26.9%,
COc1ccc(NC(=O)C2CC(c3cc(OC)c(OC)c(OC)c3)=NO2)cc1OC (stereo not drawn),inconclusive: -12.1%,
Cc1cc(N2C(=O)c3ccccc3C2=O)n(C)n1,inconclusive: 6.23%,
CC(C)c1ccc(C(=O)NC(=S)NCc2cccnc2)cc1,inconclusive: 2.15%,
CCSc1nnc(NC(=O)[C@@H](NC(=O)c2ccccc2F)C(C)C)s1,inactive,
CC(C)NC(=S)NCc1cccnc1,inconclusive: -10.3%,
CC(C1CC1)N(Cc1ccccc1)C(=S)Nc1ccccc1Cl (stereo not drawn),inactive,
Cc1ccc(NC(=O)C2Cc3ccccc3C(=O)O2)cc1 (stereo not drawn),inactive,
Cn1nnnc1SCc1ccc(F)cc1,inconclusive: 4.13%,
C=C1C(=O)C=C2CN(C(=O)c3ccccc3)[C@@](Cc3ccc(F)cc3)(C(=O)OC)[C@@H]12,,"inconclusive: 1.84 µM [cytotoxic, partial curve]"
